No constants are given. Whether binding was seen depends on the method and setting. Binding seen in cells or lysates may run through a third protein. Some entries that bind do so weakly or less than the wild type.
Molecular target: T1, Ferroptosis suppressor protein 1 (human (endogenous in 786-O)) (UniProt Q9BRQ8)
T1 sequence: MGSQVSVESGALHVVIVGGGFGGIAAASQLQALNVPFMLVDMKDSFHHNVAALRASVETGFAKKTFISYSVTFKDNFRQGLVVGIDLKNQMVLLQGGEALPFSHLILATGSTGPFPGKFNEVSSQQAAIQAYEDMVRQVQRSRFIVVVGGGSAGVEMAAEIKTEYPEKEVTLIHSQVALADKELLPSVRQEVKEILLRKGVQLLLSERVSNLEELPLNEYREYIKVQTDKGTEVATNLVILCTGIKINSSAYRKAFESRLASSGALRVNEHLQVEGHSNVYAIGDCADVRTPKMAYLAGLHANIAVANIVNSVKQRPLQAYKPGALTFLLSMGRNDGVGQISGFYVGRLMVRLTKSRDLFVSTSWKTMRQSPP
Assay: co-IP; 786-O cells lysed in NP-40 buffer, pre-cleared; anti-MDH2 or anti-FSP1 rabbit polyclonal antibody (IgG as negative control), 4 °C 12 h, protein A/G Sepharose beads; Western blot with anti-MDH2 or anti-FSP1

binding: binds
B1: Malate dehydrogenase 2 (enzyme, UniProt P40926 25-338)
chain: AKVAVLGASGGIGQPLSLLLKNSPLVSRLTLYDIAHTPGVAADLSHIETKAAVKGYLGPEQLPDCLKGCDVVVIPAGVPRKPGMTRDDLFNTNATIVATLTAACAQHCPEAMICVIANPVNSTIPITAEVFKKHGVYNPNKIFGVTTLDIVRANTFVAELKGLDPARVNVPVIGGHAGKTIIPLISQCTPKVDFPQDQLTALTGRIQEAGTEVVKAKAGAGSATLSMAYAGARFVFSLVDAMNGKEGVVECSFVKSQETECTYFSTPLLLGKKGIEKNLGIGKVSSFEEKMISDAIPELKASIKKGEDFVKTLK
